Results as given in article PMC4640547.

Target: T1, EGFP-tagged CD180 (human) (UniProt Q99467)
T1 sequence: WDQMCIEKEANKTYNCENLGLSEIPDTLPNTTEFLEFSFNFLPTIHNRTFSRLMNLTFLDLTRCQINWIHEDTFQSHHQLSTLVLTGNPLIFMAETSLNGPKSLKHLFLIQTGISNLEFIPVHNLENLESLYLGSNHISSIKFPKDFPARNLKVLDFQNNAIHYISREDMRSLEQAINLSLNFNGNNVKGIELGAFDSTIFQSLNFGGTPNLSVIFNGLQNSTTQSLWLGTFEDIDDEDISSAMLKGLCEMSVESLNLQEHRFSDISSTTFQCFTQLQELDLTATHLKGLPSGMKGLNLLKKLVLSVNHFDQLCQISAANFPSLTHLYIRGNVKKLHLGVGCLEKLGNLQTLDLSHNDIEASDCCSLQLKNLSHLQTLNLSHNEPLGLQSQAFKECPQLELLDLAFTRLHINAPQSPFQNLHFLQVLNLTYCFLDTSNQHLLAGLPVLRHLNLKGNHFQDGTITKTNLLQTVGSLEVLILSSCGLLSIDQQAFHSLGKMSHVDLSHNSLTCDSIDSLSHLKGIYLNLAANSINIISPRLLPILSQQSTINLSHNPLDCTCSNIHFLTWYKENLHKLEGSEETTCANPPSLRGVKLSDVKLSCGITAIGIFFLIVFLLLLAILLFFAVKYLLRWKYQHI
Test: co-IP; HEK cells transiently co-transfected with APP-tagged PIM-1L and EGFP-tagged CD180; precleared lysates immunoprecipitated with anti-GFP antibody and Protein G Sepharose; blot with anti-PIM-1

tagged, kinase-dead DN PIM-1L variant (K67M) (enzyme)
binding: no binding

These are yes or no findings as the source states them, for the method shown. Binding seen in cells or lysates may run through a third protein. Where a sequence is shown, tags or fusion partners need not be part of it.
